Drawing on paper PMC8458385, “Molecular basis for PICS-mediated piRNA biogenesis and cell division” (Nature Communications, 2021), this text covers binding for 16 molecules.

Assay [1] has as its target T1, ERH-2 (C. elegans) (UniProt Q20057).
T1 sequence: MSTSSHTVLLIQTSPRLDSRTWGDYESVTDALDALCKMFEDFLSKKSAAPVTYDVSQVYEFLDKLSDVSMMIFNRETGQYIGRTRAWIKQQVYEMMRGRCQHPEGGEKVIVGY
The assay is described as follows: condition: 1–2 mM in the syringe, 30–50 μM in the cell; ITC; MicroCal ITC200, 25 °C, 20 mM Tris pH 8.5, 200 mM NaCl or 20 mM MES pH 6.5, 200 mM NaCl; 1–2 mM in the syringe into 30–50 μM in the cell; one-site binding model; both purified.

Assay [2] has as its target PICS-1^RRM F217E (C. elegans) (UniProt O76616). The assay is described as follows: SEC; gel filtration of PICS-1^RRM wild type and F217E alone, HiLoad 16/600 Superdex 75; 20 mM Tris, 200 mM NaCl (pH 8.5 in the methods, pH 7.5 in the legend); both purified.
Assay [3] shares this target. The assay is described as follows: SEC; wild type and F217E of PICS-1^RRM on HiLoad 16/600 Superdex 75, 20 mM Tris hydrochloride pH 8.5, 200 mM NaCl; both purified.
For assay [4], the target named is T2, ERH-2^1-103-(Gly-Ser-Ser)6-TOST-1^34-54 (C. elegans) (UniProt Q20057+Q18490).
T2 sequence: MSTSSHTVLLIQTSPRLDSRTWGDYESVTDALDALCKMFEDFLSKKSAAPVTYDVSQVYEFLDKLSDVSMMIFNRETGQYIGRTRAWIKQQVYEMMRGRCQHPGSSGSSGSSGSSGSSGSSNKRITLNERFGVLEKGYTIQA
Kind of assay: condition: 1–2 mM in the syringe, 30–50 μM in the cell; ITC; MicroCal ITC200, 25 °C, 20 mM Tris pH 8.5, 200 mM NaCl or 20 mM MES pH 6.5, 200 mM NaCl; 1–2 mM in the syringe into 30–50 μM in the cell; one-site binding model; both purified.

Assay [5] concerns the target T1, ERH-2 (C. elegans). The assay is described as follows: condition: 1-2 mM in the syringe, 30-50 μM in the cell; ITC; MicroCal ITC200, 25 °C; 20 mM Tris pH 8.5, 200 mM NaCl or 20 mM MES pH 6.5, 200 mM NaCl; 1-2 mM protein or peptide in the syringe titrated into 30-50 μM protein in the cell; one-site model; Kd mean ± SD of a minimum of two experiments; both purified.
The target of assay [6] is T3, ERH-2 D67A (C. elegans) (UniProt Q20057).
T3 sequence: T1 sequence with D67A
The description is as above.

For assay [7], the target named is T4, ERH-2^1-103-(Gly-Ser-Ser)6-TOST-1^34-54 fusion protein (C. elegans) (UniProt Q20057+Q18490).
T4 sequence: T2 sequence
Described as above.

Assay [8] has as its target T5, ERH-2 M38D (C. elegans) (UniProt Q20057).
T5 sequence: T1 sequence with M38D
The assay is described as follows: condition: 1–2 mM in the syringe, 30–50 μM in the cell; ITC; MicroCal ITC200, 25 °C, 20 mM Tris pH 8.5, 200 mM NaCl or 20 mM MES pH 6.5, 200 mM NaCl; 1–2 mM in the syringe into 30–50 μM in the cell; one-site binding model; both purified.

The target in assay [9] is T1, ERH-2 (C. elegans). The assay is described as follows: SEC; ERH-2 and TOFU-6^RRM mixed with PICS-1 constructs, Superose 6 Increase 10/300 GL, 20 mM Tris hydrochloride pH 8.5, 200 mM NaCl; fractions on SDS-PAGE; both purified. For orientation: SEC sorts molecules by how far they enter the pores of the column.
Assay [10] deals with T3, ERH-2 D67A (C. elegans). Kind of assay: condition: 1–2 mM in the syringe, 30–50 μM in the cell; ITC; MicroCal ITC200, 25 °C, 20 mM Tris pH 8.5, 200 mM NaCl or 20 mM MES pH 6.5, 200 mM NaCl; 1–2 mM in the syringe into 30–50 μM in the cell; one-site binding model; both purified.
Assay [11] concerns the target T5, ERH-2 M38D (C. elegans). Kind of assay: condition: 1-2 mM in the syringe, 30-50 μM in the cell; ITC; MicroCal ITC200, 25 °C; 20 mM Tris pH 8.5, 200 mM NaCl or 20 mM MES pH 6.5, 200 mM NaCl; 1-2 mM protein or peptide in the syringe titrated into 30-50 μM protein in the cell; one-site model; Kd mean ± SD of a minimum of two experiments; both purified.

Residue numbers refer to the chain shown, from its start. Names and notes keep the numbering of the source. No constants are given. Whether binding was seen depends on the method and setting. For part of these data: Sequences can lack the tags named with a protein.

B1: SUMO-fused TOST-1^34-54 R42C (domain or fragment, UniProt Q18490 34-54)
chain: NKRITLNECFGVLEKGYTIQA
For B1, the binding entry with ERH-2 (C. elegans) [1] was “no binding”.

B2: SUMO-fused TOST-1^34-54 L39A/F43A (domain or fragment, UniProt Q18490 34-54)
chain: NKRITANERAGVLEKGYTIQA
As for B2, the binding entry with ERH-2 (C. elegans) [1] is listed as “no binding”.

B3: PICS-1^RRM F217E (domain or fragment, UniProt O76616 201-282)
chain: QENMLKISGYPGMLNTEGIAQLLTPYRVNGITITGAQSAVVALENKFQVYQAVQDFNGKKLDRNHKLQVSSLVVSSPAVPLE
Turning to B3, the binding result in assay [2] and in [3] was “no binding” each time.

B4: SUMO-fused EBM V189D/L190D (PICS-1 residues 180-200) (domain or fragment, UniProt O76616 180-200)
chain: EDIKDSVFKDDHAEEEPRGAD
Turning to B4, the binding entry with ERH-2 (C. elegans) [1] is listed as “no binding”.

B5: SUMO-fused PID-1^50-70 (domain or fragment, C. elegans, UniProt Q19541 50-70, looked up)
chain: TNLHRKVTLSDRFELAALGYE
notes: PID-1, C. elegans, residues 50-70; the results say it was fused to the C-terminus of SUMO; also called PID-1 fragment; source: E. coli BL21(DE3), purified (Ni-NTA); not shown: SUMO, N-terminal, kept
With B5, the binding result in assay [4] was “no binding”.

B6: SUMO-fused EBM I182D/V186D (PICS-1 residues 180-200) (domain or fragment, UniProt O76616 180-200)
chain: EDDKDSDFKVLHAEEEPRGAD
With B6, the binding result with ERH-2 (C. elegans) [1] was “no binding”.

B7: SUMO-TOST-1^34-54 R42C (domain or fragment, UniProt Q18490 34-54)
chain: NKRITLNECFGVLEKGYTIQA
For B7, the binding entry with ERH-2 (C. elegans) [5] is “no binding”.

B8: SUMO-PICS-1^180-200 V189D/L190D (domain or fragment, UniProt O76616 180-200)
chain: EDIKDSVFKDDHAEEEPRGAD
Turning to B8, in the assay with ERH-2 (C. elegans) [5], the binding result is recorded as “no binding”.

B9: SUMO-TOST-1^34-54 (domain or fragment, C. elegans, UniProt Q18490 34-54, looked up)
chain: NKRITLNERFGVLEKGYTIQA
notes: TOST-1, C. elegans, residues 34-54; Fused to the C-terminus of SUMO (pET28-SUMO); the Kds are for the SUMO fusion; also called TOST-1 fragment; source: E. coli BL21(DE3), purified (Ni-NTA); not shown: SUMO, N-terminal, kept
In the case of B9, in the assay with ERH-2 D67A (C. elegans) [6], the binding result is on record as “no binding”.

B10: SUMO-PID-1^50-70 (domain or fragment, C. elegans, UniProt Q19541 50-70, looked up)
chain: TNLHRKVTLSDRFELAALGYE
notes: PID-1, C. elegans, residues 50-70; Fused to the C-terminus of SUMO; the Kds are for the SUMO fusion; also called PID-1 fragment; source: E. coli BL21(DE3), purified (Ni-NTA); not shown: SUMO, N-terminal, kept
For B10, the binding entry (in [7]; in the assay with ERH-2 D67A (C. elegans) [6]) was “no binding” each time.

B11: SUMO-fused PICS-1 ERH-2 binding motif (EBM, residues 180-200) (domain or fragment, C. elegans, UniProt O76616 180-200, looked up)
chain: EDIKDSVFKVLHAEEEPRGAD
notes: Cloned into pET28-SUMO; the Kds are for the SUMO fusion protein; also called PICS-1^EBM; PICS-1^180-200; source: E. coli BL21(DE3), purified (Ni-NTA); not shown: SUMO, N-terminal, kept
Turning to B11, the binding entry with ERH-2 M38D (C. elegans) [8] is “no binding”.

B12: PICS-1^5-282 with EBM deleted (domain or fragment, UniProt O76616)
chain: QKADFKSKWAMVVTVNNLNDKKRADLREFSEWFIETLRLEGAFIGHYFNYEAAPVTIVETLPGNFDSCTNAYQKIHKEHPQVVLVVHILPQSQSNEYEWMKVLASRYGFVRQGLLYDNCANRFQNVETDQNSVFRNMCQWIYRSGTAIVRNEGNACGILHGKDPKPTFDKVLFNSQENMLKISGYPGMLNTFGIAQLLTPYRVNGITITGAQSAVVALENKFQVYQAVQDFNGKKLDRNHKLQVSSLVVSSPAVPLE
As to B12, in the assay with ERH-2 (C. elegans) [9], the binding result is listed as “no binding”.

B13: SUMO-TOST-1^34-54 L39A/F43A (domain or fragment, UniProt Q18490 34-54)
chain: NKRITANERAGVLEKGYTIQA
For B13, the binding result with ERH-2 (C. elegans) [5] was “no binding”.

B14: SUMO-fused TOST-1^34-54 (domain or fragment, C. elegans, UniProt Q18490 34-54, looked up)
chain: NKRITLNERFGVLEKGYTIQA
notes: TOST-1, C. elegans, residues 34-54; Cloned into pET28-SUMO; also called TOST-1 fragment; source: E. coli BL21(DE3), purified (Ni-NTA); not shown: SUMO, N-terminal, kept
As for B14, in the assay with ERH-2 D67A (C. elegans) [10], the binding entry is recorded as “no binding”.

B15: SUMO-PICS-1^180-200 (ERH-2 binding motif, EBM) (domain or fragment, C. elegans, UniProt O76616 180-200, looked up)
chain: EDIKDSVFKVLHAEEEPRGAD
notes: Fused to the C-terminus of SUMO (pET28-SUMO); the Kds are for the SUMO fusion; also called PICS-1EBM; source: E. coli BL21(DE3), purified (Ni-NTA); not shown: SUMO, N-terminal, kept
B15: the binding entry with ERH-2 M38D (C. elegans) [11] is given as “no binding”.

B16: SUMO-PICS-1^180-200 I182D/V186D (domain or fragment, UniProt O76616 180-200)
chain: EDDKDSDFKVLHAEEEPRGAD
For B16, in the assay with ERH-2 (C. elegans) [5], the binding result is “no binding”.
